Assays:
[1] = test system: immortalized human brain endothelial cell line (hCMEC/D3)
[2] = in vitro; conditions: human

Papp A→B [2]: 15.6 ± 3.1 ×10⁻⁶ cm/s
SMILES: COc1cc2c(cc1OC)C(=O)C(CC1CCN(Cc3ccccc3)CC1)C2 (centres unmarked) [Donepezil, donepezil]
CNS (+/-) [1]: +

— article PMC12406253, “Exploration of the Neuromodulatory Properties of Fyn and GSK-3β Kinases Exploiting 7‑Azaindole-Based Inhibitors” (Journal of Medicinal Chemistry, 2025)
